Experimental data: US6555062B1, “Reagent container for an automated analyzer” (Bayer Corporation, priority 1991, dated 2003)

Test system: monoclonal anti-digoxin antibody
Assay: Digoxin chemiluminescent immunoassay, specificity (cross-reactivity, effect on dose)
Type: binding
Settings: level tested 20 ug/mL (cortisone, prednisone) or 1 ug/mL (estradiol, progesterone, testosterone)
Method: A digoxin assay has been developed for the above described automated analyzer. The digoxin assay architecture is a hapten solid phase with a labeled antibody (tracer reagent). In the preferred format of this assay, the tracer reagent is an acridinium ester labeled monoclonal anti-digoxin antibody; and the solid phase is paramagnetic particles to which digoxin-apoferritin has been immobilized. A test sample (150 uL.) and tracer reagent (50 uL.) are dispensed into a cuvette by the analyzer and incubated for 2.5 minutes at 37° C. The solid phase reagent (250 uL.) is then added to the cuvette followed by an additional incubation of 5.0 minutes. After the second incubation, magnetic separation and washes are performed as described above prior to detection of the chemiluminescent signal.
All data presented was generated based upon a two-point recalibration off an original master curve. The master curve was generated using eight standards with values ranging from zero to 6 ng/mL digoxin.
The test assay has a sensitivity of less than 0.1 ng/mL (minimum detectable dose defined as the 95% confidence limit at 0 ng/mL.) with a range of 0-5 ng/mL. The correlation of the automated test assay with a manual test assay (Magic^R Digoxin, Ciba Corning Diagnostics, Corp.) provided a slope of 1.00, an intercept of 0.08 and a correlation coefficient of 0.97 (N=130).

Structure (SMILES)	Effect on Dose
C[C@]12CCC(=O)C=C1CC[C@@H]1[C@@H]2C(=O)C[C@@]2(C)[C@H]1CC[C@]2(O)C(=O)CO [Cortisone]	N.S.
C[C@]12C=CC(=O)C=C1CC[C@@H]1[C@@H]2C(=O)C[C@@]2(C)[C@H]1CC[C@]2(O)C(=O)CO [Prednisone]	N.S.
CC(=O)[C@H]1CC[C@H]2[C@@H]3CCC4=CC(=O)CC[C@]4(C)[C@H]3CC[C@]12C [Progesterone]	N.S.
C[C@]12CC[C@H]3[C@@H](CCC4=CC(=O)CC[C@@]43C)[C@@H]1CC[C@@H]2O [Testosterone]	N.S.
